Here are results for three substances from article PMC6561742.

Sequences of proteins named here, by UniProt entry; tags and fusion partners are left off.
UniProt P59178: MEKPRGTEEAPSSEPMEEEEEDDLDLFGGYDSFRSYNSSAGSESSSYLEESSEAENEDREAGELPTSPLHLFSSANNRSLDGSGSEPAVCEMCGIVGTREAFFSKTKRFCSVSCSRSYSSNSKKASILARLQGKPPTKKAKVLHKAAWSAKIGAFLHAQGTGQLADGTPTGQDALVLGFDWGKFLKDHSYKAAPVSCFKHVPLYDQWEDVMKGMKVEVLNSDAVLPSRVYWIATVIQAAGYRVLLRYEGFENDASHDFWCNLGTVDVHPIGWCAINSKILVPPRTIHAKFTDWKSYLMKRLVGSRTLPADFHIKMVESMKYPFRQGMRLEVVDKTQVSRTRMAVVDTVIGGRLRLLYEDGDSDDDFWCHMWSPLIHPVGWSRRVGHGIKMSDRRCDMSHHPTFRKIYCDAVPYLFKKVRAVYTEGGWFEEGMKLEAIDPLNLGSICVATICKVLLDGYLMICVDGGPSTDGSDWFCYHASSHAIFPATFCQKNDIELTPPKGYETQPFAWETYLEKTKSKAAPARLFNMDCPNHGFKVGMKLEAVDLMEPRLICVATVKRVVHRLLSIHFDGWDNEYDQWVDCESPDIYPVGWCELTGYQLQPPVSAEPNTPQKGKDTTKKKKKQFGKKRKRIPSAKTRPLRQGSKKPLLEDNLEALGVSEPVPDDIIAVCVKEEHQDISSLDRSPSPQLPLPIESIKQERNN
UniProt P28574: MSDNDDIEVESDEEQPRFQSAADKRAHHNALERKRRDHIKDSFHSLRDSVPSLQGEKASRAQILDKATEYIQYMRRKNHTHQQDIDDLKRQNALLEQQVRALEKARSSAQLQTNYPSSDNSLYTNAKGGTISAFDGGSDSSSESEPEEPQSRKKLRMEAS
UniProt Q61069: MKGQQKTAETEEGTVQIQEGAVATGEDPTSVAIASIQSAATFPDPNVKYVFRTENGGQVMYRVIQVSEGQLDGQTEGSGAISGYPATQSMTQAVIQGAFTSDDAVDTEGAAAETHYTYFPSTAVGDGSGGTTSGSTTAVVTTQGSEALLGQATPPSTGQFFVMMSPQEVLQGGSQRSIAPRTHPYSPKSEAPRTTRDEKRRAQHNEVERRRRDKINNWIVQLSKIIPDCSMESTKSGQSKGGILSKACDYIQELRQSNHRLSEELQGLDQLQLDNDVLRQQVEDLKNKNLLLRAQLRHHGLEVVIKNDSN

Test [1] addresses T1, PCGF6 (mouse (endogenous in mESCs)) (UniProt Q99NA9).
T1 sequence: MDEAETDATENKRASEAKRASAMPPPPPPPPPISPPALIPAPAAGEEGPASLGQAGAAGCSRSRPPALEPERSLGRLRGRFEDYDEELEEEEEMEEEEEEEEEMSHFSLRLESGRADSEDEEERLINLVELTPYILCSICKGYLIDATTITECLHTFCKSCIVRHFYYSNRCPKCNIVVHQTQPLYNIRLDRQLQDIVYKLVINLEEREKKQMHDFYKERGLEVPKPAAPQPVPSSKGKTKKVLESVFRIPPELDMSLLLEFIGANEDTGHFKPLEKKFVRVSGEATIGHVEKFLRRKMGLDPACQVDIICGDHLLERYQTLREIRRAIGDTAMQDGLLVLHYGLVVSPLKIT
The test is described as follows: co-IP; PCGF6 antibody immunoprecipitation from nuclear extracts of mESC lines (R1A KO-R1B FL treated or not with OHT, Pcgf6 KO, WT, MgaΔHLH); high-salt lysis buffer (300 mM NaCl), benzonase, protein A magnetic beads; western blot. On the technique in general: A western blot detects proteins with antibodies after separation by electrophoresis.

Test [2] has as its target T2, PCGF3 (mouse (endogenous in mESCs)) (UniProt Q8BTQ0).
T2 sequence: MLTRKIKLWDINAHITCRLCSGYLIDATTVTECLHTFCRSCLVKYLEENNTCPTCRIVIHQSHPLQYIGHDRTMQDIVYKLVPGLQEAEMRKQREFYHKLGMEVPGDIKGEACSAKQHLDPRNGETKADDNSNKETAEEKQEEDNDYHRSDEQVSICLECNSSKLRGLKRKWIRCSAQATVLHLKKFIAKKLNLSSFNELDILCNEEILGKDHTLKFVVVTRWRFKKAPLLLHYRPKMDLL
The test can be described thus: co-IP; PCGF3 antibody immunoprecipitation from nuclear extracts of WT mESCs; milder coIP conditions after digesting DNA with benzonase; rabbit IgG as unrelated control; western blot.

Results are given in words; binding and its absence hold for the method and conditions named. In cells and extracts the contact can be indirect. Some binding calls cover weakened binding; strength is not graded here.

With L3MBTL2 (from UniProt P59178 1-703), the binding result in test [1] is reported as “binds”.

For the substance MAX (from UniProt P28574 1-160), in test [1], the binding entry is given as “binds”.

Take USF1 (from UniProt Q61069 1-310): the binding result in test [2] is on record as “binds”.
